The record followed here is patent US9352015B2, “Antimicrobial peptides” (priority 2009, dated 2016).

One data set has as its system Pseudomonas aeruginosa. The following applies: for Pseudomonas aeruginosa Therapeutic index (HC50/MICGM): Table 12; for Therapeutic index HC50/MIC: HC50 over geometric mean MIC; for Therapeutic index HC50/MIC / Therapeutic index Fold (improvement compared to D1): P. aeruginosa.
Another data set concerns Acinetobacter baumannii. Type of data set: cell-based. Here is the method: (§1) Minimal inhibitory concentrations (MICs) are determined using a standard microtiter dilution method, with 3 sets of determinations, in LB (Luria-Bertani) no-salt medium (10 g of tryptone and 5 g of yeast extract per liter). In some cases, Mueller Hinton (MH) medium or Brain Heart Infusion (BHI) medium is used.
(§2) Briefly, cells were grown overnight at 37° C. in LB and diluted in the same medium. Serial dilutions of the peptides are added to the microtiter plates in a volume of 100 μl followed by 10 μl of bacteria to give a final inoculum of 5×10^5 colony-forming units/ml. Plates are incubated at 37° C. for 24 hours and MICs determined as the lowest peptide concentration that inhibited growth. Alternatively, minimal inhibitory concentrations are determined using a standard microtiter dilution method in a Mueller-Hinton (MH) medium. Briefly, cells are grown overnight at 37° C. in MH broth and diluted in the same medium. In some cases, serial dilutions of the peptides are added to the microtiter plates in a volume of 100 μl followed by 10 μl of bacteria to give a final inoculum of 1×10^5 colony-forming units/ml. Plates are incubated at 37° C. for 24 hours and MICs are determined as the lowest peptide concentration that inhibited growth.
The biological activities of these six peptide analogs was determined against 11 clinical isolated of Acinetobacter baumannii (Table 9). Please note that the activities are reported in micromolar rather than microgram/ml. This allows a direct comparison on a molar basis with the effectiveness of molecules of different molecular weights whether peptides disclosed herein or antibiotics which in general are smaller in molecular mass. […] These are the highest antimicrobial activities observed in studies of antimicrobial peptides derived by modifying the peptide sequence of SEQ ID NO:24 (D1). D22 has the best hemolytic activity of the six analogs (D17-D22) and a therapeutic index of […] compared to […] for D1 (Table 9). D22 has no apparent advantage over D1 as determined in these experiments.

For a further data set, the system named is Gram-negative bacteria. Kind of data set: MIC against Gram-negative bacteria (V681 analog studies). Type of data set: cell-based. The method, then:
as §1, §2

Where two headings read alike, the source gives them in different places. Where a SMILES comes first, the peptide text is derived from it.

As to `CC(=O)N[C@H](CCCCN)C(=O)N[C@H](CC(C)C)C(=O)N[C@H](CCCCN)C(=O)N[C@H](CO)C(=O)N[C@H](CC(C)C)C(=O)N[C@H](CC(C)C)C(=O)N[C@H](CCCCN)C(=O)N[C@@H](C(=O)N[C@H](CC(C)C)C(=O)N[C@H](CO)C(=O)N[C@H](CCCCN)C(=O)N[C@H](CC(C)C)C(=O)N[C@H](CCCCN)C(=O)N[C@H](CCCCN)C(=O)N[C@H](CCCCN)C(=O)N[C@H](CCCCN)C(=O)N[C@H](CC(C)C)C(=O)N[C@H](CCCCN)C(=O)N[C@@H](C(=O)N[C@H](CC(C)C)C(=O)N[C@H](CC(C)C)C(=O)N[C@H](CCCCN)C(=O)N[C@H](CC(C)C)C(=O)N[C@H](CC(C)C)C(=O)N[C@H](CO)C(=O)N[C@H](CCCCN)C(N)=O)[C@H](C)O)[C@H](C)O` [Peptide D24, Ac-KLKSLLKTLSKLKKKKLKTLLKLLSK-amide], the “Pseudomonas aeruginosa Therapeutic index (HC50/MICGM)” value with Pseudomonas aeruginosa stood at 31.8. Besides, the “Therapeutic Index HC50/MIC against A. baumannii” value in the data set with Acinetobacter baumannii is reported as 64.6.
Regarding `CC[C@@H](C)[C@@H](NC(=O)[C@@H](C)NC(=O)[C@@H](CCCCN)NC(=O)[C@@H](CC(C)C)NC(=O)[C@@H](CC(C)C)NC(=O)[C@H](NC(=O)[C@@H](CCCCN)NC(=O)[C@@H](CC(C)C)NC(=O)[C@@H](C)NC(=O)[C@@H](CCCCN)NC(=O)[C@@H](CCCCN)NC(=O)[C@@H](CCCCN)NC(=O)[C@@H](C)NC(=O)[C@@H](CCCCN)NC(=O)[C@@H](CO)NC(=O)[C@@H](Cc1ccccc1)NC(=O)[C@H](NC(=O)[C@@H](CCCCN)NC(=O)[C@@H](CC(C)C)NC(=O)[C@@H](Cc1ccccc1)NC(=O)[C@@H](CO)NC(=O)[C@@H](CCCCN)NC(=O)[C@@H](Cc1c[nH]c2ccccc12)NC(=O)[C@@H](CCCCN)NC(C)=O)[C@H](C)O)[C@H](C)O)C(=O)N[C@H](CO)C(=O)N[C@H](CCCCN)C(N)=O` [Peptide D22, Ac-KWKSFLKTFSKAKKKALKTLLKAISK-amide], in the data set with Pseudomonas aeruginosa (Brain Heart Infusion medium), the “Therapeutic index HC50/MIC” value is 25.3 and the “Therapeutic index Fold (improvement compared to D1)” value was determined as 1.88. Besides, in the data set on Pseudomonas aeruginosa (Mueller Hinton medium), the “Therapeutic index HC50/MIC” value is 35.6 and the “Therapeutic index Fold (improvement compared to D1)” value is recorded as 1.05. Besides, the “Therapeutic index against A. baumannii (printed with μM)” value in the data set on Acinetobacter baumannii (text to Table 9) was determined as 101.6 µM.
Regarding `CC[C@@H](C)[C@@H](NC(=O)[C@@H](CC(C)C)NC(=O)[C@@H](CCCCN)NC(=O)[C@@H](CC(C)C)NC(=O)[C@@H](CC(C)C)NC(=O)[C@H](NC(=O)[C@@H](CCCCN)NC(=O)[C@@H](CC(C)C)NC(=O)[C@@H](CCCCN)NC(=O)[C@@H](CCCCN)NC(=O)[C@@H](CCCCN)NC(=O)[C@@H](CCCCN)NC(=O)[C@@H](CC(C)C)NC(=O)[C@@H](CCCCN)NC(=O)[C@@H](CO)NC(=O)[C@@H](Cc1ccccc1)NC(=O)[C@H](NC(=O)[C@@H](CCCCN)NC(=O)[C@@H](CC(C)C)NC(=O)[C@@H](Cc1ccccc1)NC(=O)[C@@H](CO)NC(=O)[C@@H](CCCCN)NC(=O)[C@@H](Cc1c[nH]c2ccccc12)NC(=O)[C@@H](CCCCN)NC(C)=O)[C@H](C)O)[C@H](C)O)C(=O)N[C@H](CO)C(=O)N[C@H](CCCCN)C(N)=O` [Peptide D12, Ac-KWKSFLKTFSKLKKKKLKTLLKLISK-amide], the “Pseudomonas aeruginosa Therapeutic index (HC50/MICGM)” value with Pseudomonas aeruginosa was 4.7. Moreover, the “Therapeutic Index HC50/MIC against A. baumannii” value in the data set with Acinetobacter baumannii was 9.6.
Take `CC(=O)N[C@H](CCCCN)C(=O)N[C@H](CC(C)C)C(=O)N[C@H](CCCCN)C(=O)N[C@H](CO)C(=O)N[C@H](CC(C)C)C(=O)N[C@H](CC(C)C)C(=O)N[C@H](CCCCN)C(=O)N[C@@H](C(=O)N[C@H](CC(C)C)C(=O)N[C@H](CO)C(=O)N[C@H](CCCCN)C(=O)N[C@H](C)C(=O)N[C@H](CCCCN)C(=O)N[C@H](CCCCN)C(=O)N[C@H](CCCCN)C(=O)N[C@H](CC(C)C)C(=O)N[C@H](CC(C)C)C(=O)N[C@H](CCCCN)C(=O)N[C@@H](C(=O)N[C@H](C)C(=O)N[C@H](CC(C)C)C(=O)N[C@H](CCCCN)C(=O)N[C@H](C)C(=O)N[C@H](CC(C)C)C(=O)N[C@H](CO)C(=O)N[C@H](CCCCN)C(N)=O)[C@H](C)O)[C@H](C)O` [Peptide D15, Ac-KLKSLLKTLSKAKKKLLKTALKALSK-amide]: the “Therapeutic Index HC50/MIC against A. baumannii” value in the data set with Acinetobacter baumannii was found to be 339.2.
Take `CC[C@H](C)[C@H](NC(=O)[C@H](C)NC(=O)[C@H](CCCCN)NC(=O)[C@H](CC(C)C)NC(=O)[C@H](C)NC(=O)[C@@H](NC(=O)[C@H](Cc1c[nH]cn1)NC(=O)[C@H](CC(C)C)NC(=O)[C@@H](NC(=O)[C@@H](NC(=O)[C@H](CCCCN)NC(=O)[C@@H](C)NC(=O)[C@H](C)NC(=O)[C@H](CO)NC(=O)[C@H](CCCCN)NC(=O)[C@H](Cc1ccccc1)NC(=O)[C@@H](NC(=O)[C@H](CCCCN)NC(=O)[C@H](CC(C)C)NC(=O)[C@H](Cc1ccccc1)NC(=O)[C@H](CO)NC(=O)[C@H](CCCCN)NC(=O)[C@H](Cc1c[nH]c2ccccc12)NC(=O)[C@H](CCCCN)NC(C)=O)[C@@H](C)O)[C@@H](C)O)C(C)C)[C@@H](C)O)C(=O)N[C@@H](CO)C(=O)N[C@@H](CO)C(N)=O` [NAD] (HELM PEPTIDE1{[ac].K.W.K.S.F.L.K.T.F.K.S.A.[dA].K.T.V.L.H.T.A.L.K.A.I.S.S.[am]}$$$$V2.0): the “Fold increase in therapeutic index against Gram-negative bacteria compared to V681” value in the data set with Gram-negative bacteria was 42 fold.
For the molecule `CC[C@@H](C)[C@@H](NC(=O)[C@@H](C)NC(=O)[C@@H](CCCCN)NC(=O)[C@@H](CC(C)C)NC(=O)[C@@H](CC(C)C)NC(=O)[C@H](NC(=O)[C@@H](CCCCN)NC(=O)[C@@H](CC(C)C)NC(=O)[C@@H](CCCCN)NC(=O)[C@@H](CCCCN)NC(=O)[C@@H](CCCCN)NC(=O)[C@@H](CCCCN)NC(=O)[C@@H](C)NC(=O)[C@@H](CCCCN)NC(=O)[C@@H](CO)NC(=O)[C@@H](Cc1ccccc1)NC(=O)[C@H](NC(=O)[C@@H](CCCCN)NC(=O)[C@@H](CC(C)C)NC(=O)[C@@H](Cc1ccccc1)NC(=O)[C@@H](CO)NC(=O)[C@@H](CCCCN)NC(=O)[C@@H](Cc1c[nH]c2ccccc12)NC(=O)[C@@H](CCCCN)NC(C)=O)[C@H](C)O)[C@H](C)O)C(=O)N[C@H](CO)C(=O)N[C@H](CCCCN)C(N)=O` [Peptide D14, Ac-KWKSFLKTFSKAKKKKLKTLLKAISK-amide], in the data set with Acinetobacter baumannii, the “Therapeutic Index HC50/MIC against A. baumannii” value worked out at 439.4.
`CC[C@@H](C)[C@@H](NC(=O)[C@@H](C)NC(=O)[C@@H](CCCCN)NC(=O)[C@@H](CC(C)C)NC(=O)[C@@H](C)NC(=O)[C@H](NC(=O)[C@@H](CCCCN)NC(=O)[C@@H](CC(C)C)NC(=O)[C@H](NC(=O)[C@@H](CCCCN)NC(=O)[C@@H](CCCCN)NC(=O)[C@@H](CCCCN)NC(=O)[C@@H](C)NC(=O)[C@@H](CCCCN)NC(=O)[C@@H](CO)NC(=O)[C@@H](Cc1ccccc1)NC(=O)[C@H](NC(=O)[C@@H](CCCCN)NC(=O)[C@@H](CC(C)C)NC(=O)[C@@H](Cc1ccccc1)NC(=O)[C@@H](CO)NC(=O)[C@@H](CCCCN)NC(=O)[C@@H](Cc1c[nH]c2ccccc12)NC(=O)[C@@H](CCCCN)NC(C)=O)[C@H](C)O)C(C)C)[C@H](C)O)C(=O)N[C@H](CO)C(=O)N[C@H](CCCCN)C(N)=O` [Peptide D11, Ac-KWKSFLKTFSKAKKKVLKTALKAISK-amide]: the “Therapeutic Index HC50/MIC against A. baumannii” value in the data set on Acinetobacter baumannii is on record as 423.5.
